From patent US12091425B2 (AMGEN INC., priority 2016, dated 2024)
Read-outs that look alike come from different tables or passages of the source. Structures were worked out from names or drawings and are uncertain.

Amino acid sequences for entries named in this document (tags omitted). Residues count along the entry.
UniProt Q07820, 171-327 limits assumed: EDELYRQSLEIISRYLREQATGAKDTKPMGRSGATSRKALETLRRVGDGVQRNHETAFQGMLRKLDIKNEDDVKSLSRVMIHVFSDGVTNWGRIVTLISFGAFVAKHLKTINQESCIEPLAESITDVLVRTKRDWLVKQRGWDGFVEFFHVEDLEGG

Legend:
[1] = target: Mcl-1/Bim interaction, recombinant human Mcl-1 (171-327) (Homo sapiens, UniProt Q07820); assay: Cell free Mcl-1: Bim Affinity Assay (Mcl-1 HTRF); assay type: binding; details: read-out: Mcl-1 HTRF
[2] = tested on: OPM-2 human multiple myeloma cell line; assay: Cell Viability Assay (OPM-2 10 FBS); assay type: cell-based
[3] = TR-FRET, 0.1 nM Mcl-1 (171-327), 0.05 nM biotin-Bim (51-76)
[4] = read-out: OPM-2 10% FBS, OPM-2 cells, 16 h, CellTiter-Glo
[5] = cell free Mcl-1:Bim TR-FRET, recombinant human Mcl-1 (171-327)

Row | Compound | IC50 [1, 3] [nM] | IC50 [2, 4] [nM] | IC50 [1, 5] [nM] | IC50 ([2]; read-out: OPM-2 10% FBS, OPM-2 cells, 16 h incubation, CellTiter-Glo) [nM]
1 | CO[C@H]1/C=C/[C@H](CC(C)O)C[C@@H](C)S(=O)(=O)NC(=O)c2ccc3c(c2)N(C[C@@H]2CC[C@H]21)C[C@@]1(CCCc2cc(Cl)ccc21)CO3 (stereo partly drawn) | 3.17 | 3290 | – | –
2 | O=C1NS(=O)(=O)CCC(O)C(O)C[C@H](O)[C@@H]2CC[C@H]2CN2C[C@@]3(CCCc4cc(Cl)ccc43)COc3ccc1cc32 (stereo partly drawn) | – | – | 4.38 | –
3 | CC1/C=C/C(=O)[C@@H]2CC[C@H]2CN2C[C@@]3(CCCc4cc(Cl)ccc43)COc3ccc(cc32)C(=O)NS(=O)(=O)[C@H](C)[C@H]1C (stereo partly drawn) | 5.55 | – | – | 5710
4 | O=C1NS(=O)(=O)C2CCC[C@H](C2)[C@@H](O)[C@@H]2CC[C@H]2CN2C[C@@]3(CCCc4cc(Cl)ccc43)COc3ccc1cc32 (single isomer, unassigned) | 0.751 | 2960 | – | –
5 | CC(=O)O[C@H]1/C=C/CC(C2CC2)CS(=O)(=O)NC(=O)c2ccc3c(c2)N(C[C@@H]2CC[C@H]21)C[C@@]1(CCCc2cc(Cl)ccc21)CO3 (stereo partly drawn) | – | 19000 | 19.6 | –
6 | O=C1NS(=O)(=O)CC(CO)CCCC[C@H](O)[C@@H]2CC[C@H]2CN2C[C@@]3(CCCc4cc(Cl)ccc43)COc3ccc1cc32 (stereo partly drawn) | – | – | 8.21 | –
7 | O=C1NS(=O)(=O)N(CC2CO2)CC/C=C/[C@H](O)[C@@H]2CC[C@H]2CN2C[C@@]3(CCCc4cc(Cl)ccc43)COc3ccc1cc32 (stereo partly drawn) | 0.2 | 54.1 | – | –
